# According to the supplement of paper PMC12823440, “Inhibitors supercharge kinase turnover through native proteolytic circuits” (Nature, 2025):
# Chains of the proteins cited; added tags and fusions are not shown. Lines headed by an entry give the natural chain unless they say otherwise; changes in a name come on top.
# UniProt Q15208: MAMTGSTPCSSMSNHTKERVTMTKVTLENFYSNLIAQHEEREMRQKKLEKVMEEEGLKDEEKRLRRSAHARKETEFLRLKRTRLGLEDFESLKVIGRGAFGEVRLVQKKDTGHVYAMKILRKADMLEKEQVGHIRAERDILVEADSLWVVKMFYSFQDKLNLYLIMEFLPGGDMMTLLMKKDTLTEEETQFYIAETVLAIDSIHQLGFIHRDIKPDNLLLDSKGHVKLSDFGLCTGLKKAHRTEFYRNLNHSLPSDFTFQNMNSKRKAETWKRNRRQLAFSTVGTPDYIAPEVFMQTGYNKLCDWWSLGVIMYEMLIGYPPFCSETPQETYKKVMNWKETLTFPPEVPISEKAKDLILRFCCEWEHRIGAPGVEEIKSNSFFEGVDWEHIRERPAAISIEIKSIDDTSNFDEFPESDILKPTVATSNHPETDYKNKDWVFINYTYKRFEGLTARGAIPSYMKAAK
# UniProt P42680: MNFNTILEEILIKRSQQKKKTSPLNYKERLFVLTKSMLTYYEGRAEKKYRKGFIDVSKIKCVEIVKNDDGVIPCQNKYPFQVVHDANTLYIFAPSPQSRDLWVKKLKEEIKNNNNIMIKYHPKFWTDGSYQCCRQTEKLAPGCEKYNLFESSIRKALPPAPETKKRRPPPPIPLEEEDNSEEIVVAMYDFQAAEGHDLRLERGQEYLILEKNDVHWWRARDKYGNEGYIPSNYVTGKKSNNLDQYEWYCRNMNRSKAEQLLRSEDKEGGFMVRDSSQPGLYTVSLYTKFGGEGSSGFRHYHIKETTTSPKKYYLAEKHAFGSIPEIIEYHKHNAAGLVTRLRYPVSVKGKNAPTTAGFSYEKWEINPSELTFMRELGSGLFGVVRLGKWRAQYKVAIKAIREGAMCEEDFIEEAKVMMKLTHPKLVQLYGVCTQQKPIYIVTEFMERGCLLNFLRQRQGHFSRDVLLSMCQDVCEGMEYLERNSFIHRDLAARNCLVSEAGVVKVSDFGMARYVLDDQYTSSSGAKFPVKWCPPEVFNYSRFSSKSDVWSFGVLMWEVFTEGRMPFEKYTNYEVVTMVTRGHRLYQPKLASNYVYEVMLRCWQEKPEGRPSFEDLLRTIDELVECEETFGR
# UniProt P29597: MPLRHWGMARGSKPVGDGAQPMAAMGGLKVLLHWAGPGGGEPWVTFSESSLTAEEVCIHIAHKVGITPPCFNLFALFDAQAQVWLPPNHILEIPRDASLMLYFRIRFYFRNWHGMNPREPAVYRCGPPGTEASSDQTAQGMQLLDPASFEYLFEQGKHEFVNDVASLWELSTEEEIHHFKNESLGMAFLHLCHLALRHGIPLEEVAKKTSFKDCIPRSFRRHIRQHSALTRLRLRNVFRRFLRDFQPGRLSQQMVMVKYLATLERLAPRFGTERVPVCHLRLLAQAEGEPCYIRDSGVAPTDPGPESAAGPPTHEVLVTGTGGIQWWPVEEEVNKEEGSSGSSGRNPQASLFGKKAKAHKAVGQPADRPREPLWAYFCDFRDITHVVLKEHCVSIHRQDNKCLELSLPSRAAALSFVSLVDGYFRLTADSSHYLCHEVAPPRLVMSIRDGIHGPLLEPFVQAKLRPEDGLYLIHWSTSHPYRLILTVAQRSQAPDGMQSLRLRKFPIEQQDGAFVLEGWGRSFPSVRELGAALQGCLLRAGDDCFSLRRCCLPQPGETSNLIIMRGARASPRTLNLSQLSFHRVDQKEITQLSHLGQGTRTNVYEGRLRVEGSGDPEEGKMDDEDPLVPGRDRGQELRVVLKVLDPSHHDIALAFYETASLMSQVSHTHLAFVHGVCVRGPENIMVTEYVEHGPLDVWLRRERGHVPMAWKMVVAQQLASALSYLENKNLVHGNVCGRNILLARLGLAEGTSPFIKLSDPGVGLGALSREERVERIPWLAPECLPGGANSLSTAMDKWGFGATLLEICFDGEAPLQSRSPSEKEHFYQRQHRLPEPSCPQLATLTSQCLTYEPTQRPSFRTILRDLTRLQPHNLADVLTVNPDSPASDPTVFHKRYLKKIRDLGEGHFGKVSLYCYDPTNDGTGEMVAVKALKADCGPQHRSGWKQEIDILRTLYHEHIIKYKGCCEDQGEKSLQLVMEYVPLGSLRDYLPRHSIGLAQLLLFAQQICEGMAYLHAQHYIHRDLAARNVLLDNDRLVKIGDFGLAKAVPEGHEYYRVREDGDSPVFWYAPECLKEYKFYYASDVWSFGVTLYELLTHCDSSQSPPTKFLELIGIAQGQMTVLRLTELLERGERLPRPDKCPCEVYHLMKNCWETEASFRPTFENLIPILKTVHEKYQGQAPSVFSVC
# UniProt Q6PHR2: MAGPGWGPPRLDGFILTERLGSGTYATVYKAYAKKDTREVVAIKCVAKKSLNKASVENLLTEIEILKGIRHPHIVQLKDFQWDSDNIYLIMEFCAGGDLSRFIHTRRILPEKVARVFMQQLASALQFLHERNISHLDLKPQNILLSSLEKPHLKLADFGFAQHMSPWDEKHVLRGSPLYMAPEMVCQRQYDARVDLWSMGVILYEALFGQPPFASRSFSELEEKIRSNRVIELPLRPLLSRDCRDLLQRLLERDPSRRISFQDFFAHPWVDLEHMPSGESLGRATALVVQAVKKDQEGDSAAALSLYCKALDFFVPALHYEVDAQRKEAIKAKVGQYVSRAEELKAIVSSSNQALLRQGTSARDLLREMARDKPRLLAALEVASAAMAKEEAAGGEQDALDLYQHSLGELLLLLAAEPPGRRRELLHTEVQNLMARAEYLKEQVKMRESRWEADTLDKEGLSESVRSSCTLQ
# UniProt P07947, whole entry, looked up: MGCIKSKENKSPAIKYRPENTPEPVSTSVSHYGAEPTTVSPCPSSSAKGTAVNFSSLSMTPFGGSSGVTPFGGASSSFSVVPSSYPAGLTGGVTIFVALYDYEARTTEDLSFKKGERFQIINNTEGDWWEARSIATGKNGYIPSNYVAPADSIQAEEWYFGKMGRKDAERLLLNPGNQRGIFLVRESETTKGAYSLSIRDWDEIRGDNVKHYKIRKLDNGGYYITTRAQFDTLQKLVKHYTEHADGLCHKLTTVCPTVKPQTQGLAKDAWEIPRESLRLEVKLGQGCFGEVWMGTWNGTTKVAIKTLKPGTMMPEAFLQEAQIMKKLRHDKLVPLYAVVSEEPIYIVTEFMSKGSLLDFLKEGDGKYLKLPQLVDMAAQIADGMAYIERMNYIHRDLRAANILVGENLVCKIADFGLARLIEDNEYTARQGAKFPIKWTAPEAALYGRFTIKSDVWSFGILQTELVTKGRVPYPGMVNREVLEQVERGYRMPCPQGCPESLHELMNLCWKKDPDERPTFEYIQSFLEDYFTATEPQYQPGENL
# UniProt P43403: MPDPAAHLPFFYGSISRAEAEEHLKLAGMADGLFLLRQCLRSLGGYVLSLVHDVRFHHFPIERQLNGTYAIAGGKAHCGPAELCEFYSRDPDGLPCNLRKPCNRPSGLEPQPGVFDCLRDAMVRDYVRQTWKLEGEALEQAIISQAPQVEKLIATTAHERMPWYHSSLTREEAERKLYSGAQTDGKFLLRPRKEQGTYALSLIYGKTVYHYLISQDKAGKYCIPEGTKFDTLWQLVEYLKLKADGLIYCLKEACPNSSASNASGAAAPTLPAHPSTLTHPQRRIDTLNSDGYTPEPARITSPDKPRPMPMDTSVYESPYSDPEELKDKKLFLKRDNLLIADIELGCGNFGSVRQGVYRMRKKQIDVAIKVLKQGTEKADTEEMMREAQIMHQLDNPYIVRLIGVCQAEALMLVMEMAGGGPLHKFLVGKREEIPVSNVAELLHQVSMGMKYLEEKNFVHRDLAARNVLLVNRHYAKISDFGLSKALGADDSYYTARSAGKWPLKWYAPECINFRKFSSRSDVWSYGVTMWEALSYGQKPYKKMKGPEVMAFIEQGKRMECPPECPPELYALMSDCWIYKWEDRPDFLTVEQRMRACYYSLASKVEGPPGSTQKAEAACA
# UniProt P00519, whole entry: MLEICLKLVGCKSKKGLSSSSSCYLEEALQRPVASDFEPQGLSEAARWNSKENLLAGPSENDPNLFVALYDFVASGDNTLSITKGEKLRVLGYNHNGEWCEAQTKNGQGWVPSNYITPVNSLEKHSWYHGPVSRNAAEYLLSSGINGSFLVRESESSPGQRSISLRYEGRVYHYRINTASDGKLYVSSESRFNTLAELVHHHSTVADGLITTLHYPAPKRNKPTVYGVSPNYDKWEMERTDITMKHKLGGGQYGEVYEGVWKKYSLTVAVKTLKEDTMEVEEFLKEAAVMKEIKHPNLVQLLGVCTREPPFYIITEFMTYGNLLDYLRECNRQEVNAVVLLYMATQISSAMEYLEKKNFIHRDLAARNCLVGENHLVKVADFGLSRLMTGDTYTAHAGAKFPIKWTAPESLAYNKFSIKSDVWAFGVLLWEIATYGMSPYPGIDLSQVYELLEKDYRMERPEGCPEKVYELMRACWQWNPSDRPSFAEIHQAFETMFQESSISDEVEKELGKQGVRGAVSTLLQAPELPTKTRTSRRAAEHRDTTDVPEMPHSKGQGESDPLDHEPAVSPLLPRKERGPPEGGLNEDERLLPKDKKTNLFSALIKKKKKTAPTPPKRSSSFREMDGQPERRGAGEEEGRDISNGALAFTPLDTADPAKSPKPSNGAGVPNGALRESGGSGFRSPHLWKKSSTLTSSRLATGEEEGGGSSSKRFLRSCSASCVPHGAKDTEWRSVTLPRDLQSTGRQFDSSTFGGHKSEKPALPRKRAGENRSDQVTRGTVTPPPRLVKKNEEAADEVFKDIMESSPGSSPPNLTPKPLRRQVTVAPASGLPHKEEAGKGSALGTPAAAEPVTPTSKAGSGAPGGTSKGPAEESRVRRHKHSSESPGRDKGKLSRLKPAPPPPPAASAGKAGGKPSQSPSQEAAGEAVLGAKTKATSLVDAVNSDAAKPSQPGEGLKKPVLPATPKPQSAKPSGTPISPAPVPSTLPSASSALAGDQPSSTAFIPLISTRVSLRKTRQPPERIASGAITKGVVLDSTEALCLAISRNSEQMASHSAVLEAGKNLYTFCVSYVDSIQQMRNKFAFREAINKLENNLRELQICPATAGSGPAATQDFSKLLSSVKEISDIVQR
# UniProt P31749: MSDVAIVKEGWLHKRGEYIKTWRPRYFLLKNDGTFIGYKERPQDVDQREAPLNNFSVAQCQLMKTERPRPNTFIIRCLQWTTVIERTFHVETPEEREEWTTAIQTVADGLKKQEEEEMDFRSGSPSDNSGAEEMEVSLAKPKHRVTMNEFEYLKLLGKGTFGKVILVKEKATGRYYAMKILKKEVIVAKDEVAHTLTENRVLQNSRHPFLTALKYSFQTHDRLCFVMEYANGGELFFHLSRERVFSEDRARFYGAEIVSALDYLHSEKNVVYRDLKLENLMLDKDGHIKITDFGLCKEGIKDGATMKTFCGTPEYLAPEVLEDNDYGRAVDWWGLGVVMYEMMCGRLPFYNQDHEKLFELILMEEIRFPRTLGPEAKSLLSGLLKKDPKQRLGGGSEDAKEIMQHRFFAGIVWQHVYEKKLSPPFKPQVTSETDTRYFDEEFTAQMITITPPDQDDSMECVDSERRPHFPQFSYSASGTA
# Where a name gives a salt, the structure may show the parent alone. This is one part of the list. The calls rarely recur for the same compound in another form.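 Kinases, fused to nanoluciferase, were expressed in K562 cells; luminescence was measured every 4 h from 2 to 18 h as percent of control (DMSO = 100%, positive control = 0%). A time point is decreased if signal falls significantly (2 sigma). Hits were called by the authors by a rule that is not shown; the count of time points alone does not decide it.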
# Experiments:
# Details in all cases: K562; 2-18 h
# STK38 = STK38 (UniProt Q15208); test: kinase-Nluc reporter destabilization hit call (1 = scored as downregulated) (binary); higher = compound decreases kinase abundance
# SYK = SYK (UniProt P43405); test: as above
# TEC = TEC (UniProt P42680); test: as above
# TYK2 = TYK2 (UniProt P29597); test: as above
# ULK3 = ULK3 (UniProt Q6PHR2); test: as above
# YES1 = YES1 (UniProt P07947); test: as above
# ZAK = ZAK (UniProt Q9NYL2); test: as above
# ZAP70 = ZAP70 (UniProt P43403); test: as above
# ABL1 = ABL1 (UniProt P00519); test: number of time points (of 5) at which kinase-Nluc abundance scored as decreased, DMSO-normalised (count); higher = more persistent destabilization
# AKT1 = AKT1 (UniProt P31749); test: as above
SMILES,kinase-Nluc reporter destabilization hit call (STK38),kinase-Nluc reporter destabilization hit call (SYK),kinase-Nluc reporter destabilization hit call (TEC),kinase-Nluc reporter destabilization hit call (TYK2),kinase-Nluc reporter destabilization hit call (ULK3),kinase-Nluc reporter destabilization hit call (YES1),kinase-Nluc reporter destabilization hit call (ZAK),kinase-Nluc reporter destabilization hit call (ZAP70),number of time points (ABL1),number of time points (AKT1)
CN1C(=O)[C@@H](NC(=O)c2n[nH]c(Cc3ccccc3)n2)COc2ccccc21 (10 µM),inactive: 0,inactive: 0,inactive: 0,inactive: 0,inactive: 0,inactive: 0,inactive: 0,inactive: 0,0,0
NC1=NCCN1CC(=O)O [Cyclocreatine] (10 µM),inactive: 0,inactive: 0,inactive: 0,inactive: 0,inactive: 0,inactive: 0,inactive: 0,inactive: 0,0,0
Cc1cccc2c3c(ccc12)C(=O)C1=C(OCC1C)C3=O (stereo not given) [Dihydroisotanshinone I] (2.5 µM),inactive: 0,inactive: 0,inactive: 0,inactive: 0,inactive: 0,inactive: 0,inactive: 0,inactive: 0,0,0
COc1ccc(-c2coc3cc(O)ccc3c2=O)cc1 [Formononetin] (10 µM),inactive: 0,inactive: 0,inactive: 0,inactive: 0,inactive: 0,inactive: 0,inactive: 0,inactive: 0,0,0
N#CC(c1ccnc(OCc2ccc(CN3CCOCC3)cc2)n1)c1nc2ccccc2s1 (stereo not given) [Bentamapimod] (2.5 µM),inactive: 0,inactive: 0,inactive: 0,inactive: 0,inactive: 0,inactive: 0,inactive: 0,inactive: 0,0,0
COCCNc1cc(NC(=O)N2CCCc3cc(CN4CCN(C)CC4=O)c(C=O)nc32)ncc1C#N [Roblitinib] (10 µM),inactive: 0,inactive: 0,inactive: 0,inactive: 0,inactive: 0,inactive: 0,inactive: 0,inactive: 0,0,0
CN1CCC(c2ccccc2CC(C)(C)Nc2nc(N3CCOCC3)nc(-n3c(C(F)F)nc4ccccc43)n2)CC1 [Zandelisib] (10 µM),inactive: 0,inactive: 0,inactive: 0,inactive: 0,inactive: 0,inactive: 0,inactive: 0,inactive: 0,0,0
CNC(=O)c1cc2c(Oc3ccc(NC(=S)NC(=O)Cc4ccccc4)cc3F)ccnc2cc1OC [TAS-115 mesylate] (10 µM),inactive: 0,inactive: 0,inactive: 0,inactive: 0,inactive: 0,inactive: 0,inactive: 0,inactive: 0,0,0
Cc1ncc(NC(=O)NC2c3ccccc3-c3ccccc32)c(-c2ccccc2)n1 (10 µM),inactive: 0,inactive: 0,inactive: 0,inactive: 0,inactive: 0,inactive: 0,inactive: 0,inactive: 0,0,0
Cc1nn(C)c2c1C(c1ccc(C(F)(F)F)cc1)C(C#N)=C(N)O2 (stereo not given) (10 µM),inactive: 0,inactive: 0,inactive: 0,inactive: 0,inactive: 0,inactive: 0,inactive: 0,inactive: 0,0,0
Cc1cc(-c2ccnc(Nc3cnn(C)c3)n2)ccc1CNC(=O)N1CC(OC(C)C)C1 (10 µM),inactive: 0,inactive: 0,inactive: 0,inactive: 0,inactive: 0,inactive: 0,inactive: 0,inactive: 0,0,0
CC(C)(C[C@H](N)C(=O)O)C(F)F [NV-5138 (hydrochloride)] (10 µM),inactive: 0,inactive: 0,inactive: 0,inactive: 0,inactive: 0,inactive: 0,inactive: 0,inactive: 0,0,0
Cc1ccc(C(=O)Nc2sc(Nc3ccccc3)nc2C(N)=O)cc1 (10 µM),inactive: 0,inactive: 0,inactive: 0,inactive: 0,inactive: 0,inactive: 0,inactive: 0,inactive: 0,0,0
CC(C)CNc1ccnc(NCc2csc(-c3ccccc3)n2)n1 [KHS101 hydrochloride] (2.5 µM),inactive: 0,inactive: 0,inactive: 0,inactive: 0,inactive: 0,inactive: 0,inactive: 0,inactive: 0,0,0
C=CC(=O)Nc1cccc(-c2cccc3cnc(Nc4ccc(N5CCN(CCO)CC5)c(F)c4F)nc23)c1 [Olafertinib] (2.5 µM),inactive: 0,inactive: 0,inactive: 0,inactive: 0,inactive: 0,inactive: 0,inactive: 0,inactive: 0,0,0
CCN(CC)c1cc2oc(=O)c(-c3nc4ccccc4o3)cc2cc1C (2.5 µM),inactive: 0,inactive: 0,inactive: 0,inactive: 0,inactive: 0,inactive: 0,inactive: 0,inactive: 0,0,0

# An excerpt from above in order of length of the SMILES, smallest number first:
SMILES,kinase-Nluc reporter destabilization hit call (STK38),kinase-Nluc reporter destabilization hit call (SYK),kinase-Nluc reporter destabilization hit call (TEC),kinase-Nluc reporter destabilization hit call (TYK2),kinase-Nluc reporter destabilization hit call (ULK3),kinase-Nluc reporter destabilization hit call (YES1),kinase-Nluc reporter destabilization hit call (ZAK),kinase-Nluc reporter destabilization hit call (ZAP70),number of time points (ABL1),number of time points (AKT1)
NC1=NCCN1CC(=O)O [Cyclocreatine] (10 µM),inactive: 0,inactive: 0,inactive: 0,inactive: 0,inactive: 0,inactive: 0,inactive: 0,inactive: 0,0,0
COc1ccc(-c2coc3cc(O)ccc3c2=O)cc1 [Formononetin] (10 µM),inactive: 0,inactive: 0,inactive: 0,inactive: 0,inactive: 0,inactive: 0,inactive: 0,inactive: 0,0,0
Cc1cccc2c3c(ccc12)C(=O)C1=C(OCC1C)C3=O (stereo not given) [Dihydroisotanshinone I] (2.5 µM),inactive: 0,inactive: 0,inactive: 0,inactive: 0,inactive: 0,inactive: 0,inactive: 0,inactive: 0,0,0

# Remaining list, next part.

SMILES,kinase-Nluc reporter destabilization hit call (STK38),kinase-Nluc reporter destabilization hit call (SYK),kinase-Nluc reporter destabilization hit call (TEC),kinase-Nluc reporter destabilization hit call (TYK2),kinase-Nluc reporter destabilization hit call (ULK3),kinase-Nluc reporter destabilization hit call (YES1),kinase-Nluc reporter destabilization hit call (ZAK),kinase-Nluc reporter destabilization hit call (ZAP70),number of time points (ABL1),number of time points (AKT1)
Cc1cccc(-c2[nH]c(C(C)(C)C)nc2-c2ccc3nccnc3c2)n1 (10 µM),inactive: 0,inactive: 0,inactive: 0,inactive: 0,inactive: 0,inactive: 0,inactive: 0,inactive: 0,0,0
O=C(CNc1cccc(Cl)c1)NC1CCCN(c2ncnc3[nH]ccc23)C1 (stereo not given) (10 µM),inactive: 0,inactive: 0,inactive: 0,inactive: 0,inactive: 0,inactive: 0,inactive: 0,inactive: 0,0,0
Cc1cc(Nc2nc(CC3(C(=O)O)CCN(C(=O)c4cccc(Cl)c4Cl)CC3)ccc2F)n[nH]1 (10 µM),inactive: 0,inactive: 0,inactive: 0,inactive: 0,inactive: 0,inactive: 0,inactive: 0,inactive: 0,3,0
CN(C)c1nc2c(Br)c(Br)c(Br)c(Br)c2[nH]1 (10 µM),inactive: 0,inactive: 0,inactive: 0,inactive: 0,inactive: 0,inactive: 0,inactive: 0,inactive: 0,0,0
CC(=O)N1CCC(c2cc(-c3ccc(NC(=O)c4cccn(-c5ccc(F)cc5)c4=O)cc3F)c3c(N)ncnn23)CC1 (0.5 µM),inactive: 0,inactive: 0,inactive: 0,inactive: 0,inactive: 0,inactive: 0,inactive: 0,inactive: 0,0,0
COc1cc(/C=C/C(=O)N2CCC=CC2=O)cc(OC)c1OC [Piperlongumine] (2.5 µM),inactive: 0,inactive: 0,inactive: 0,inactive: 0,inactive: 0,inactive: 0,inactive: 0,inactive: 0,3,0
Cc1cc2sc(NC(=O)Cc3ccccc3)nc2cc1Cl (10 µM),inactive: 0,inactive: 0,inactive: 0,inactive: 0,inactive: 0,inactive: 0,inactive: 0,inactive: 0,0,0
CNc1nc(Nc2cn(C(C)(C)C#N)nc2C)ncc1C(F)(F)F (10 µM),inactive: 0,inactive: 0,inactive: 0,inactive: 0,inactive: 0,inactive: 0,inactive: 0,inactive: 0,0,0
C=CC(=O)N1C[C@H](COc2nc(Nc3cnn(C)c3)nc3[nH]cc(Cl)c23)[C@@H](OC)C1 (2.5 µM),inactive: 0,inactive: 0,inactive: 0,inactive: 0,inactive: 0,inactive: 0,inactive: 0,inactive: 0,0,0
N[C@@H](CCC(=O)O)C(=O)N[C@@H](Cc1c[nH]c2ccccc12)C(=O)O [Oglufanide] (10 µM),inactive: 0,inactive: 0,inactive: 0,inactive: 0,inactive: 0,inactive: 0,inactive: 0,inactive: 0,0,0
O=[N+]([O-])c1ccc2c(c1)S(=O)(=O)C=C2 [Stattic] (2.5 µM),inactive: 0,inactive: 0,inactive: 0,inactive: 0,inactive: 0,inactive: 0,inactive: 0,inactive: 0,3,0
c1ccc(-c2nc3c(c(-n4ccc5cnccc54)n2)CCC3)nc1 (10 µM),inactive: 0,inactive: 0,inactive: 0,inactive: 0,inactive: 0,inactive: 0,inactive: 0,inactive: 0,0,0
CCCNC(=O)Nc1ccc(Oc2ncnc3cc(OC)c(OC)cc23)cc1Cl (2.5 µM),inactive: 0,inactive: 0,inactive: 0,inactive: 0,inactive: 0,inactive: 0,inactive: 0,inactive: 0,0,0
O=c1cc(-c2cccc3c2Sc2ccccc2S3)oc(N2CCOCC2)c1 (10 µM),inactive: 0,inactive: 0,inactive: 0,inactive: 0,inactive: 0,inactive: 0,inactive: 0,inactive: 0,0,0
O=c1[nH]c(C2CCCN2)nc2c1oc1ccc(Cl)cc12 (stereo not given) [XL413 (hydrochloride)] (10 µM),inactive: 0,inactive: 0,inactive: 0,inactive: 0,inactive: 0,inactive: 0,inactive: 0,inactive: 0,0,0
